Data reported in PubChem BioAssay AID504834 (National Center for Advancing Translational Sciences (NCATS), 2011).
Screen size: about 320,000 compounds; about 22,000 (6.9%) were called active. The inconclusive results got no clear call from the source; some entries with a clear call stand among them for comparison. The call rests on the fitted dose curve; in most records, active means well fitted inhibition curve with a large enough effect; inconclusive means small, poorly fitted or top-dose-only effect, or another doubt; inactive means no such curve, though single readings can be large or run the other way. Potencies of inconclusive entries are doubtful fits and often do not repeat.
On the % scale 0 is the no-effect control and ±100 the full control effect; potency means the concentration at half of the fitted maximal effect.

Assay: Primary qHTS for delayed death inhibitors of the malarial parasite plastid, 96 hour incubation
Conditions: P. falciparum luciferase reporter growth; series mostly up to 28.7 µM
In short: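 96 h incubation, 37 C, 5% CO2, of luciferase-reporter P. falciparum-infected RBCs (2% hematocrit, 0.05% parasitemia final) with test compounds; endpoint luminescence.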
With `CCCCn1c(O)c(N=NC(=O)Cn2c(C(F)(F)F)nc3ccccc32)c2ccccc21` the Potency was inconclusive: 0.0657 µM [inhibitor, full curve].
For `c1ccc2c(c1)CSc1sccc1C2=C1CCNCC1`, the Potency was active: 10.4 µM.
For `CC(=O)OC1CC[C@]2(C#N)[C@H]3CC[C@]4(C)[C@H](C5C=CC(=O)O5)CCC4(O)C3CCC2(O)C1` (stereo not given in full), the Potency was “inactive”.
In the case of `CCOC(=O)c1ccc(NC(=O)COc2ccccc2CNCCc2ccccc2)cc1`, the Potency is reported as inconclusive: 2.33 µM [inhibitor, partial curve, poor fit].
With `CCN(CC)CCCNC(=O)c1ccc(Cl)c(S(=O)(=O)Nc2ccccc2OC)c1` the Potency was inconclusive: 14.7 µM [inhibitor, single point].
For `CCCNC(=O)c1ccc(N2CCC3(CC2)CC(c2cccc(Br)c2)=NO3)c(NC(=O)c2ccco2)c1`, the Potency was active: 0.37 µM.
For `c1cncc(-c2nc3ccccc3o2)c1`, the Potency was inconclusive: 0.0029 µM [inhibitor, full curve, poor fit].
In the case of `Cn1ncc(Br)c1C(=O)N1CCN(C(=O)c2ccco2)CC1`, the Potency is reported as inconclusive: 18.5 µM [inhibitor, single point].
For `CCOc1ccc2nc(NC3=NCN(Cc4ccco4)CN3)nc(C)c2c1`, the Potency was active: 14.7 µM.
For `CC(C)(C)OCC1CO1` (stereo not given), the Potency was inconclusive: 0.329 µM [inhibitor, partial curve, poor fit].
With `O=C(O)c1cn(C2CC2)c2cc(N3CCN(S(=O)(=O)c4ccc5c(c4)OCCO5)CC3)c(F)cc2c1=O` the Potency was inconclusive: 4.15 µM [inhibitor, single point].
For `CCCNS(=O)(=O)/C=C/c1ccccc1`, the Potency was “inactive”.
With `O=C(CN1CCN(C2CCCCC2)CC1)NCCC1=CCCCC1` the activity change, negative = inhibition was inactive: 16.9% [at 5.75 µM].
In the case of `CCOC(=O)CN1C(=O)N(c2ccccc2OC)S(=O)(=O)c2ccccc21`, the Potency is reported as inconclusive: 0.104 µM [inhibitor, partial curve, poor fit].
In the case of `COCCN1Cc2cccc(C(=O)NC3CCCCCC3)c2C1=O`, the Potency is reported as inconclusive: 18.5 µM [inhibitor, single point].
For `CC1CCN(CC(=O)c2cccc(C(F)(F)F)c2)CC1`, the Potency was inconclusive: 18.5 µM [inhibitor, single point].
In the case of `CCN(CC(=O)N1CCCCCC1)S(=O)(=O)c1ccc(C)cc1`, the Potency is reported as active: 7.38 µM.
For `CCSc1nc(CC)c2c(c1C#N)CCCC2`, the Potency was inconclusive: 5.86 µM [inhibitor, single point].
In the case of `CCOC(=O)c1c(NC(=O)c2cccs2)sc(CC)c1-c1cccs1`, the Potency is reported as active: 10.4 µM.
With `N#Cc1ccc(C(=O)Nc2cc(-c3ccc(F)cc3)nn2-c2ccccc2)cc1` the Potency was inconclusive: 14.7 µM [inhibitor, single point].
